Data from PMC12145813.
Like-named read-outs stand apart in the source and are kept apart here. Results are given in words; binding and its absence hold for the method and conditions named. Binding seen in cells or lysates may run through a third protein. Binding calls can cover weak binding; strength is not graded here. Blank lines part the entries; values can stand above or below the molecule they belong to.

Protein sequences, listed by entry. Tags and fused reporters are not part of them. Lines headed by an entry give the natural chain unless they say otherwise; changes in a name come on top.
UniProt Q8K4Z2: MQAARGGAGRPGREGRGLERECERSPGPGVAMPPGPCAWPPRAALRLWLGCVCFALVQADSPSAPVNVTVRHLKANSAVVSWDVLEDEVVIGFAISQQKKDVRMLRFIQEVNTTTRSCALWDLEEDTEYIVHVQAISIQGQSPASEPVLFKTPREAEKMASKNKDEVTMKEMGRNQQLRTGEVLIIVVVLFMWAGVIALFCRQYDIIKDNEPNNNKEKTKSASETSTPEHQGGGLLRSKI
UniProt Q8R4B8: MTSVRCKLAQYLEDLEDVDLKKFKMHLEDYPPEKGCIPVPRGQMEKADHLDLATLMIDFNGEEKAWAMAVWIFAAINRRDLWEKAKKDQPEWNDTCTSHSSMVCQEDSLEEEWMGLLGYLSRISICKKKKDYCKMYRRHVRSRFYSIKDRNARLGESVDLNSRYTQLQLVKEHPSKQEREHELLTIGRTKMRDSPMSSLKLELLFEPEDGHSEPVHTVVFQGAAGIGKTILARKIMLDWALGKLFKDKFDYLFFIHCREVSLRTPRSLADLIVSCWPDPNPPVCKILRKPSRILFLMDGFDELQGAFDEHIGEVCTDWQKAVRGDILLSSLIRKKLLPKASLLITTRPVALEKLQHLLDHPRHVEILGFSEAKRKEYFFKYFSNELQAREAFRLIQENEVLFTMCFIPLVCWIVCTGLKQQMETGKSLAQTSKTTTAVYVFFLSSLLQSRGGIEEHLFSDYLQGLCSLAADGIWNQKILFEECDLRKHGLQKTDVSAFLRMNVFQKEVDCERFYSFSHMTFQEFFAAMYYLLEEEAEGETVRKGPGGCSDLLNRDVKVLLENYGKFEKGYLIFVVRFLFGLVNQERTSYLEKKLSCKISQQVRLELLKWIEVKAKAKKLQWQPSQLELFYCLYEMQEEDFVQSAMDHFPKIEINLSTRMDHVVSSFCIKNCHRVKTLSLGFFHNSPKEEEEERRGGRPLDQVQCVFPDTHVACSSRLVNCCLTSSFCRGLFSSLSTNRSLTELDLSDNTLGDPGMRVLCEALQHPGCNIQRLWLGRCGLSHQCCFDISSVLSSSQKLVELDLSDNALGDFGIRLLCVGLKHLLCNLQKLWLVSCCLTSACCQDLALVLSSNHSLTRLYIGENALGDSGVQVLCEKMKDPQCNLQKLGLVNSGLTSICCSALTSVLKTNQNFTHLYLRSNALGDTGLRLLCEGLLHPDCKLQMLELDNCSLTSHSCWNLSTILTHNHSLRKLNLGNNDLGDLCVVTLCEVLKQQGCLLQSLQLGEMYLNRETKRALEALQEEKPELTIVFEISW

Key:
[1] = molecular target: irisin (mouse (endogenous in BV2)) (UniProt Q8K4Z2); test: co-IP; BV2 cell lysate in NP-40 buffer with protease inhibitors; 500 ug total protein with 2 ug anti-irisin antibody or IgG control overnight at 4 C, protein A/G magnetic beads 2 h; alternatively precipitated with anti-TXNIP or anti-NLRP antibodies; Western blot
[2] = molecular target: irisin (mouse (endogenous in BV2)) (UniProt Q8K4Z2); test: as above; remark: listed apart in the source

binding [1]: binds weakly
Molecule: nucleotide-binding oligomerization domain-like receptor protein 3 (NLRP3) (from UniProt Q8R4B8 1-1033)

binding [2]: binds
B1: thioredoxin-interacting protein (TXNIP) (protein, UniProt Q8BG60-1 1-397)
chain: MVMFKKIKSFEVVFNDPEKVYGSGEKVAGRVIVEVCEVTRVKAVRILACGVAKVLWMQGSQQCKQTLDYLRYEDTLLLEEQPTAGENEMVIMRPGNKYEYKFGFELPQGPLGTSFKGKYGCVDYWVKAFLDRPSQPTQEAKKNFEVMDLVDVNTPDLMAPVSAKKEKKVSCMFIPDGRVSVSARIDRKGFCEGDDISIHADFENTCSRIVVPKAAIVARHTYLANGQTKVFTQKLSSVRGNHIISGTCASWRGKSLRVQKIRPSILGCNILKVEYSLLIYVSVPGSKKVILDLPLVIGSRSGLSSRTSSMASRTSSEMSWIDLNIPDTPEAPPCYMDIIPEDHRLESPTTPLLDDVDDSQDSPIFMYAPEFQFMPPPTYTEVDPCVLNNNNNNNNVQ
